The text below walks through data of ChEMBL document CHEMBL3044875, “Synthesis and antimicrobial activity of some bisoctahydroxanthene-1,8-dione derivatives” (2011).

The test system of one test is Aspergillus niger. Put plainly: Antifungal activity against Aspergillus niger ATCC 10949 at 100 U/disk after 72 hr by disk diffusion method. It is filed as functional, organism-based.
The subject of a further test is Candida albicans. Briefly: Antifungal activity against Candida albicans ATCC 10231 at 100 U/disk after 48 hr by disk-diffusion method. It is filed as functional, organism-based.

In the case of NYSTATIN, the figures for the inhibition zone (IZ) in the test with Aspergillus niger and in the test with Candida albicans were 22 mm and 20 mm, respectively.
